From publication PMC7862700 come the findings set out here.

Only a part is listed here, and it is no random draw. For part of these data: At the low end of the ranking the order means little. This is one part of the list. For part of these data: The source does not settle which construct or isoform was used.

One assay concerns the target T1, ELK4 (UniProt P28324-2).
T1 sequence: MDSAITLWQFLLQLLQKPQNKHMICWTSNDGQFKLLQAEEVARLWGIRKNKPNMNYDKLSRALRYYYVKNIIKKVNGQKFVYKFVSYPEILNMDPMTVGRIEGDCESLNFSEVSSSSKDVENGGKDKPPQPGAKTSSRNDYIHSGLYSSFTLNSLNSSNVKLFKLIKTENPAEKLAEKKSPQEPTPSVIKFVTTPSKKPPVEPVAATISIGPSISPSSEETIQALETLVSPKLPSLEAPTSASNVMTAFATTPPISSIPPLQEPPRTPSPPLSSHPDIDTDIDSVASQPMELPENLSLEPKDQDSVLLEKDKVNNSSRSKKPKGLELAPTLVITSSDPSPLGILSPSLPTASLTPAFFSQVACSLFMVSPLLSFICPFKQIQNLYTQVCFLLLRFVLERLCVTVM
The assay can be described thus: DAPPL (digital affinity profiling via proximity ligation, sequencing). The conditions noted are these: 10 mM Tris-HCl pH 7.5, 50 mM NaCl, 1 mM DTT, 4% glycerol, room temperature, 30 min; GST-TFs on glutathione beads, 16-mer random dsDNA library, 0.1% …; high values mean tight binding; double strand, one strand shown; scale: fold enrichment (6-mer frequency, TF over GST control).

In the next assay the target is T2, ETV4 (UniProt P43268).
T2 sequence: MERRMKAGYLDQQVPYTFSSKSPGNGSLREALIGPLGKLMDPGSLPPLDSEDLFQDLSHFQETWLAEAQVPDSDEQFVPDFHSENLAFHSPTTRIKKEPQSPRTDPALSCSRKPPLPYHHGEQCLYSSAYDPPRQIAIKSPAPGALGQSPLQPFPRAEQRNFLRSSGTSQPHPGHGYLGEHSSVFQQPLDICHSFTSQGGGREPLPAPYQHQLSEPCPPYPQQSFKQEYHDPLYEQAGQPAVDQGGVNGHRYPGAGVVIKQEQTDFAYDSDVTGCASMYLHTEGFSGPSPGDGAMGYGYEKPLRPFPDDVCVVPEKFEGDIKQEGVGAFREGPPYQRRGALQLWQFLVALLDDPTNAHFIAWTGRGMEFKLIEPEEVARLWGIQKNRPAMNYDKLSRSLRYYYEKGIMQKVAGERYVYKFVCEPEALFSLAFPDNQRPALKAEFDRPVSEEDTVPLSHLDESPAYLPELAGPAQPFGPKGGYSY
The assay is described as above. The settings on record: 10 mM Tris-HCl pH 7.5, 50 mM NaCl, 1 mM DTT, 4% glycerol, room temperature, 30 min; GST-TFs on glutathione beads, 16-mer random dsDNA library, 0.1% …; high values mean tight binding; double strand, one strand shown; scale: fold enrichment (6-mer frequency, TF over GST control).

Consider CTTGCT, for which the binding signal came out at 1.34 with ELK4 and 1.41 with ETV4.
For TACCAT, in that order: 1.27 and 1.05.
CGATGG: the binding signal with ELK4 came out at 1.46; with ETV4, 1.31.
Take CCGGCC: the binding signal was 1.27 in the assay with ELK4 and 1.25 with ETV4.
For GTCCAT the same measures were 1.18 and 1.12.
For ACCTGG the same measures were 1.25 and 1.25.
GTTTCA: the binding signal with ELK4 worked out at 1.28; with ETV4, 1.31.
For TTACGC the same measures were 1.04 and 1.1.
For CACCTC, in that order: 1.14 and 1.25.
For TTCTTA the same measures were 1.5 and 1.32.
GAAAAC: the binding signal was 1.16 in the assay with ELK4 and 1.05 with ETV4.
For ACTCGA, in that order: 1.35 and 1.35.
For TATCCC the same measures were 1.64 and 1.56.
For GCTGCG, in that order: 0.991 and 1.11.
On to ATTCGC, for which the binding signal is 1.1 in the assay with ELK4 and 1.19 with ETV4.
For ACCTGA, in that order: 1.14 and 1.17.
For TGGACT the same measures were 1.25 and 1.26.
For ATTCGA the same measures were 1.2 and 1.39.
With ATTATA, the binding signal with ELK4 came to 1.29; with ETV4, 1.23.
For AATCTG, in that order: 1.55 and 1.45.
For AATATT the same measures were 1.35 and 1.3.
For CGGTTC, in that order: 1.29 and 1.38.
For GGATAT, the binding signal in the assay with ELK4 was found to be 1.48; with ETV4, 1.67.
In the case of GCAACT, the binding signal worked out at 1.2 with ELK4 and 1.18 with ETV4.
Take AAACTC: the binding signal with ELK4 is 1.04; in the assay with ETV4 it was 1.23.
As for AGCTGC, the binding signal amounted to 1.11 with ELK4 and 1.17 with ETV4.
For GTTTTT, in that order: 1.32 and 1.26.
For ATTCCA, in that order: 1.19 and 1.19.
As for CGGCAT, the binding signal with ELK4 was determined as 1.1; with ETV4, 1.13.
Consider AACTAT, for which the binding signal with ELK4 stood at 1.45; with ETV4, 1.28.
For ACTGCA the same measures were 1.25 and 1.14.
For TAGTGT the same measures were 1.4 and 1.08.
For AATGTT the same measures were 1.46 and 1.53.
Turning to TCAATT, the binding signal with ELK4 came to 1.08; with ETV4, 1.22.
For AGTCCC the same measures were 0.971 and 1.
For CCGGTC, in that order: 1.18 and 1.22.
For GTGTCT, in that order: 0.824 and 1.04.
As to TGTTGT, the binding signal with ELK4 stood at 1.24; with ETV4, 1.08.
For GATTTG, in that order: 1.19 and 1.24.
With TCCGCC, the binding signal with ELK4 came to 1.45; with ETV4, 1.63.
For AAGTAT, in that order: 1.31 and 1.4.
For TATCGC, in that order: 1.3 and 1.19.
For CCACAT the same measures were 1.28 and 1.24.
In the case of TCGTAT, the results for the binding signal in the assay with ELK4 and in the assay with ETV4 were 0.899 and 0.971, respectively.
On to TCTAGA, for which the binding signal is 0.974 with ELK4 and 0.961 with ETV4.
For GGCCTT the same measures were 1.09 and 1.24.
For CCAATT the same measures were 1.09 and 1.24.
For TTTAAG, in that order: 1.22 and 1.28.
On to ACCCGA, for which the binding signal with ELK4 turned out to be 1.04; in the assay with ETV4, 1.07.
For the sequence GAAGCG, the binding signal worked out at 1.2 in the assay with ELK4 and 1.36 with ETV4.
For TACAGG, in that order: 1.26 and 1.12.
For TATTAC, in that order: 1.31 and 1.19.
For TTTAAC, in that order: 1.13 and 1.08.
Turning to CACCGA, the binding signal was determined as 1.13 with ELK4 and 1.09 in the assay with ETV4.
For TTTAAT, in that order: 1.35 and 1.18.
As for GCTCCG, the binding signal with ELK4 was determined as 1.33; with ETV4 it was 1.45.
For AACTAC the same measures were 1.32 and 1.53.
